Source: publication PMC5171793

Biological target: GFP-tagged Smc3 (Smc3-GFP) (Drosophila)
Test: co-IP; 1 mg total protein extract of S2 cells expressing Smc3-GFP (control RNAi or san RNAi; actively dividing or arrested in metaphase with 25 μM colchicine for 12 hours) in NB buffer; GFP-Trap magnetic beads, 1 hr at 4 °C; western blot; cells with an empty plasmid as negative control

- binding: no binding
B1: Dalmatian/Sororin (protein, UniProt Q9VH89 1-857)
chain: MVRTRPVPCVPSPDVNTATRRNPGRPKKQSIGADLSTTISKPGRPKKLSIGADLTTIRKPGRPKKLGADLTTIIRKPGRPTKLSNKQSLTALNEPECRIRKCVVKIRRIKVKNGVVSEISRNDAPDVDASTFEPARNSTMYIPSKVQKSTQPQNIKENVAGPETSPCQQRIRSKSPSGPAAEISPKKPPRFFHRDQPLTRTRSSVTRNVFDFLSQSQIEDDSDREDPAADIIQRLVKDGKACVMVRSRKIGKPRAKRTAKKVRPVGNRRKVSTKDNEPEPVKVVPKSIEPRLQKPSRSLSTIFEPEEDYSNDSEHGYVQPIEVPVQVHVEPSTSKQAHEGAYSNLARSVMLNQTQAQNPLPSTDRRRELINMARQLVSTPLNRRAPPVTDVSATTTALSPIAHQSPNAVRTAGGKSPWRVSDDSPLPNTFMFGFNNSQMPSYSSDHVQRRHVYVPDSPVEHAENIPHEESICPPLHEQNHDSNANDSNEENRPPPTISKSMSINDQESEENAENFVHLPNPRRTLQKRTPFKDINILEVVTLPSWKKNVTATVSKEITPTRVAPRPMATSSPAQRSQTRSNLFGFDDDFACEDIPRKSTTPSKGIAPTSMSLNREVTPALANRNQTEVNTFGCNEILPCENIPKEKETNTEERTSSSQNLFGFDEFITESQDSPANFTGLSQNVNLHDKLHRLAELRPRDGELPQVSYTSIRSDCLGESHSKQTDIRYMLCSTMIAPPRPAKRKPAAPTARESMGLFRVDQDEPEQSFADKQPRRTYVKERPQRKRKKRVQILYIESESEDEDEQDSHDKSLDSPEKKRHHVKRPRRDIEHEAKLEQFVTSFNKQCEEVEKFPVIIE

These are yes or no findings as the source states them, for the method shown. Binding seen in cells or lysates may run through a third protein.
